Reference: PMC3830196, “Calmodulin-like protein AtCML3 mediates dimerization of peroxisomal processing protease AtDEG15 and contributes to normal peroxisome metabolism” (Plant Molecular Biology, 2013)

Molecular target: AtDEG15 missing the C-terminal domain (yeast fusion) (Arabidopsis thaliana)
Experiment: yeast three-hybrid; full length AtDEG15 in pBridge, AtDEG15 constructs in pGAD424, AtCML3 from the second multiple cloning site of pBridge expressed (0 mM Met); lacZ reporter, Miller units; S. cerevisiae AH109

B1: AtCML3 expressed as the third protein in the yeast three-hybrid (protein, UniProt Q9SRR7 1-153)
chain: MDQAELARIFQMFDRNGDGKITKQELNDSLENLGIYIPDKDLVQMIEKIDLNGDGYVDIEEFGGLYQTIMEERDEEEDMREAFNVFDQNRDGFITVEELRSVLASLGLKQGRTLEDCKRMISKVDVDGDGMVNFKEFKQMMKGGGFAALGSNL
Q: How did the binding turn out when B1 was run?
A: binds

Results are given in words; binding and its absence hold for the method and conditions named. Binding can be weak; no strength is given.
